This test relates to L1210 leukemia ip in BDF1 mice, survival T/C. Put plainly: NCI In Vivo Anticancer Drug Screen. Data for tumor model L1210 Leukemia (intraperitoneal) in B6D2F1 (BDF1) mice. Conditions: T/C endpoint: mean survival time, higher T/C = longer survival.
Setting [1] is: dose: 400.0 mg/kg/injection, schedule: Q01DX001 (ip), vehicle: saline.
Setting [2] is: dose: 200.0 mg/kg/injection, schedule: Q01DX001 (ip), vehicle: saline.
Setting [3] is: dose: 37.0 mg/kg/injection, schedule: Q01DX Z (ip), vehicle: other.
[4] abbreviates: dose: 50.0 mg/kg/injection, schedule: Q01DX001 (ip), vehicle: carboxymethylcellulose (CMC).
Where [5] appears, read: dose: 200.0 mg/kg/injection, schedule: Q01DX001 (ip), vehicle: carboxymethylcellulose (CMC).
[6] abbreviates: dose: 400.0 mg/kg/injection, schedule: Q04DX003 (ip), vehicle: Klucel (hydroxypropylcellulose) (HPC).
Where [7] appears, read: dose: 400.0 mg/kg/injection, schedule: Q04DX003 (ip), vehicle: saline.
[8] abbreviates: dose: 200.0 mg/kg/injection, schedule: Q01DX009 (ip), vehicle: Klucel (hydroxypropylcellulose) (HPC).
Where [9] appears, read: dose: 400.0 mg/kg/injection, schedule: Q01DX009 (ip), vehicle: Klucel (hydroxypropylcellulose) (HPC).

SMILES strings stand for the structures. The list shows only some results of the screen, not a fair sample: it is rich in T/C values a quarter to a half above the control, in often repeated tests (any T/C) and in doses without a T/C. Further doses and runs are listed elsewhere. T/C: endpoint of the treated group in % of that of the vehicle group. Some entries give survivors of the animals treated and no T/C: the source files T/C as zero there, which appears to mark a toxic dose or a test without result, not a measured value. Some doses without a T/C left all or most animals alive at the check, yet need not have been tolerated: the source hardly ever lists a survival T/C far under the control, and the zero likely stands for such cases as well. Survivors were counted at the toxicity check, usually on the fifth day, unless a day is given; later deaths do not show. Schedule codes are those of the source, taken here to give the interval after Q, in days (D) or hours (H), and the number of doses after X. Some schedules carry Z or #; the key to these is not given. Some doses were run more than once; the results are listed from low to high. For survival time, the PubChem record calls one and a half times the control and up active, and a quarter to a half above the control has no call in these data; cut-offs in other NCI protocols can differ. Additions like (4×) count equal records among those shown. Some T/C values carry the count of animals alive at the toxicity check (mostly the fifth day); without a count, all were alive then.

Turning to `C=CCOC(=O)C(C)O` (configuration not stated), the survivor count under setting [1] is listed as 0 of 4.

Turning to `CCNC(C)CC(C)C` (configuration not stated), the survivor count reads like this: (dose: 200.0 mg/kg/injection, schedule: Q04DX003 (ip), vehicle: saline with Tween-80) 0 of 6; (dose: 400.0 mg/kg/injection, schedule: Q04DX003 (ip), vehicle: saline with Tween-80) 0 of 6.

Take `O=C(CI)Nc1cc(C(F)(F)F)ccc1Cl`: where the note is “dose: 100.0 mg/kg/injection, schedule: Q04DX003 (ip), vehicle: Klucel (hydroxypropylcellulose) (HPC)”, the survivor count is recorded as 2 of 6.

For `COc1ccc2nc3cc(Cl)ccc3c(NCC3(c4ccccc4)CCN(C)CC3)c2c1`, the survivor count (dose: 50.0 mg/kg/injection, schedule: Q04DX003 (ip), vehicle: saline) was 5 of 6; the survivor count (dose: 100.0 mg/kg/injection, schedule: Q01DX001 (ip), vehicle: saline) was 0 of 6; the survivor count under setting [2] is on record as 0 of 6; the survivor count under setting [1] was 0 of 6.

As to `O=NN(C(=O)NC1CCCCC1)C1CCCCC1`, the survivor count (dose: 600.0 mg/kg/injection, schedule: Q01DX001 (ip), vehicle: carboxymethylcellulose (CMC)) is 3 of 6; the survivor count (dose: 800.0 mg/kg/injection, schedule: Q01DX001 (ip), vehicle: carboxymethylcellulose (CMC)) is on record as 3 of 6; the survivor count (dose: 1000.0 mg/kg/injection, schedule: Q01DX001 (ip), vehicle: carboxymethylcellulose (CMC)) was 0 of 6.

On to `Nc1nc(SN=Nc2ccc([As](=O)(O)O)cc2)c2[nH]cnc2n1`, for which the T/C was 128 % of control (2×) (dose: 1.0 mg/kg/injection, schedule: Q01DX Z (ip), vehicle: other); 125 % of control (dose: 2.5 mg/kg/injection, schedule: Q01DX Z (ip), vehicle: other); 142 % of control (dose: 5.0 mg/kg/injection, schedule: Q01DX015 (ip), vehicle: carboxymethylcellulose (CMC)); 134 (2×), 141, 144 % of control (dose: 5.0 mg/kg/injection, schedule: Q01DX Z (ip), vehicle: other); 134 [5 of 6 alive], 146, 153, 158 % of control (dose: 7.0 mg/kg/injection, schedule: Q01DX Z (ip), vehicle: other); 134 % of control (dose: 11.0 mg/kg/injection, schedule: Q01DX Z (ip), vehicle: other). Further, the T/C was 145 % of control (dose: 16.0 mg/kg/injection, schedule: Q01DX Z (ip), vehicle: other); 131 % of control [5 of 6 alive] (dose: 17.0 mg/kg/injection, schedule: Q01DX Z (ip), vehicle: other); 126 and 145 % of control (dose: 25.0 mg/kg/injection, schedule: Q01DX001 (ip), vehicle: carboxymethylcellulose (CMC)); 139 % of control (dose: 25.0 mg/kg/injection, schedule: Q01DX Z (ip), vehicle: other); 126 % of control under setting [3]; 135 % of control [7 of 10 alive] under setting [4]. Also, the survivor count runs as follows: (dose: 20.0 mg/kg/injection, schedule: Q01DX015 (ip), vehicle: carboxymethylcellulose (CMC)) 0 of 6; under setting [3], 2 of 6; (dose: 40.0 mg/kg/injection, schedule: Q01DX015 (ip), vehicle: carboxymethylcellulose (CMC)) 0 of 6; under setting [4], 4 of 10; (dose: 84.0 mg/kg/injection, schedule: Q01DX Z (ip), vehicle: other) 1 of 6; (dose: 100.0 mg/kg/injection, schedule: Q01DX001 (ip), vehicle: carboxymethylcellulose (CMC)) 0 of 10 and 2 of 10. Moreover, the survivor count (dose: 100.0 mg/kg/injection, schedule: Q## X001 (ip), vehicle: carboxymethylcellulose (CMC)) is given as 10 of 10; the survivor count under setting [5] is recorded as 0 of 10; the survivor count (dose: 200.0 mg/kg/injection, schedule: Q## X001 (ip), vehicle: carboxymethylcellulose (CMC)) is given as 10 of 10.

Take `C=CCc1ccccc1OC`: under “dose: 400.0 mg/kg/injection, schedule: Q01DX009 (ip), vehicle: saline with Tween-80”, the survivor count is reported as 1 of 6.

Regarding `O=C(O)C1CCC(C(=O)O)CC1` (configuration not stated), the survivor count under setting [5] is given as 4 of 4.

As for `CCCC[S][Pb]([c]1ccccc1)([c]1ccccc1)[c]1ccccc1`, the survivor count (dose: 400.0 mg/kg/injection, schedule: Q01DX001 (ip), vehicle: Klucel (hydroxypropylcellulose) (HPC)) is listed as 2 of 6.

With `CCCCCCCCCCCCCCCCCCNc1ccc(C(=O)OCC)cc1`, the survivor count (dose: 150.0 mg/kg/injection, schedule: Q01DX001 (ip), vehicle: saline) was 6 of 6.

On to `CCN(CC)CCNc1ccc(CO)c2oc3cc(Cl)ccc3c(=O)c12`, for which the survivor count (dose: 250.0 mg/kg/injection, schedule: Q01DX009 (ip), vehicle: Klucel (hydroxypropylcellulose) (HPC)) is recorded as 3 of 6.

For the compound `CCOC=NC1=C(Cl)C(=O)C(N=COCC)=C(Cl)C1=O`, the survivor count under setting [6] is reported as 5 of 6.

Regarding `CCN(CC)CCOC(=O)c1cccc2[nH]ccc12`, the survivor count under setting [7] is listed as 2 of 6.

In the case of `NC(N)=N/C(N)=N/Nc1ccc([N+](=O)[O-])cc1[N+](=O)[O-]`, the survivor count was 1 of 6 (dose: 50.0 mg/kg/injection, schedule: Q04DX002 (ip), vehicle: saline with Tween-80); 1 of 3 (dose: 200.0 mg/kg/injection, schedule: Q04DX002 (ip), vehicle: saline with Tween-80); 0 of 3 (dose: 400.0 mg/kg/injection, schedule: Q04DX002 (ip), vehicle: saline with Tween-80).

As to `C[NH-].C[NH-].C[NH-].C[NH-].[Cl][Rh][Cl]`, the survivor count by setting is: under setting [8], 5 of 6; under setting [9], 0 of 6.

On to `O=C(CCC(C(=O)c1ccccc1)c1ccccc1)c1ccc(-c2ccccc2)cc1` (configuration not stated), for which the survivor count is on record as 6 of 6 (dose: 175.0 mg/kg/injection, schedule: Q01DX009 (ip), vehicle: Klucel (hydroxypropylcellulose) (HPC)) and 5 of 6 (dose: 350.0 mg/kg/injection, schedule: Q01DX009 (ip), vehicle: Klucel (hydroxypropylcellulose) (HPC)).

As to `C[n+]1ccc(NC(=O)c2ccc(NC(=O)c3cccc(C(=O)Nc4ccc(C(=O)Nc5cc[n+](C)cc5)cc4)c3)cc2)cc1`, the T/C (dose: 10.0 mg/kg/injection, schedule: Q01DX Z (ip), vehicle: carboxymethylcellulose (CMC)) was 144 % of control. In addition, the survivor count (dose: 320.0 mg/kg/injection, schedule: Q01DX Z (ip), vehicle: carboxymethylcellulose (CMC)) was 5 of 6.

Take `CC1CC1C(=O)Cl` (configuration not stated): the survivor count (dose: 200.0 mg/kg/injection, schedule: Q01DX009 (ip), vehicle: saline) is listed as 1 of 3.

`N=C(N)c1ccc(-n2cc3cc(C(=N)N)ccc3n2)cc1`: the survivor count is, setting by setting: (dose: 100.0 mg/kg/injection, schedule: Q04DX003 (ip), vehicle: saline) 0 of 4; (dose: 200.0 mg/kg/injection, schedule: Q04DX003 (ip), vehicle: saline) 0 of 4; under setting [7], 0 of 4.

For the compound `CC(=O)Nc1nccs1`, the survivor count runs as follows: under setting [8], 3 of 6; under setting [6], 1 of 6.

For `CN(N=O)C(=O)Nc1cccc2cccnc12`, the survivor count by setting is: (dose: 50.0 mg/kg/injection, schedule: Q01DX Z (ip), vehicle: carboxymethylcellulose (CMC)) 4 of 6; (dose: 100.0 mg/kg/injection, schedule: Q01DX Z (ip), vehicle: carboxymethylcellulose (CMC)) 5 of 6.

`CCC1(/C(C)=C/C(C)C)C(=O)NC(=O)NC1=O`: the survivor count is reported as 2 of 6 (dose: 20.0 mg/kg/injection, schedule: Q01DX001 (ip), vehicle: saline); 0 of 6 (dose: 40.0 mg/kg/injection, schedule: Q01DX001 (ip), vehicle: saline); 0 of 6 (dose: 80.0 mg/kg/injection, schedule: Q01DX001 (ip), vehicle: saline).

As for `O=C(O)c1ccc2ccccc2n1.[Cu+2]`, the survivor count under setting [2] is given as 1 of 6 and the survivor count under setting [1] is reported as 0 of 6.

Consider `O=[N+]([O-])c1cc2c3ccccc3oc2c2cccnc12`, for which, under setting [9], the survivor count was 5 of 5.
